Out of some 52,000 sequences screened, about 210 (0.4%) were called active.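 The calls were made as follows: active = gene whose silencing raises cell survival under the drug, median off-target-corrected z-score across its silencing RNAs 2 or more; inactive = the rest.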 This is one part of the list.

The nature of the assay: Resistance to Poly (ADP-Ribose) Polymerase inhibitor: Gene Identification via Genome-wide siRNA Screen. The note with it: mouse BRCA2 R2336H ES cells, olaparib, CellTiter-Glo viability; stronger effect = higher value. In short, it runs like this:
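Genome-wide siRNA screen (3 siRNAs/gene, 20 nM) in mouse ES cells carrying hypomorphic BRCA2 R2336H; olaparib 500 nM added 48 h post-transfection, CellTiter-Glo viability 72 h later. Normalized to plate-median negative control; MAD z-scores, gene median, seed-adjusted.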
On the technique in general: ATP-based viability assays read luminescence as a measure of living cells.
GGAAGAACAGGAUUGUGAATT against Gpr156: the z-score is inactive: -0.393. The value for GGAUUUAGAUUUUUCCCUCTT against Alox12e was inactive: 1; that for CCCACCAAUGUCAGCGUGUTT against LOC238447 was inactive: -0.707; that for GGCCUUCGUUGAAUUCUUGTT against C1qbp was inactive: -0.386. The result for GCAAGAAACACGGAGGUGATT against Olfr1231 reads inactive: -1.17; that for GCAAGCUAGAGAAAAUCAGTT against Serpinb3b, inactive: 0.33; that for GAUGAAAUCUAAAGAUGGGTT against Olfr178, inactive: -0.278. “GCAAUAGGCUUUUAUUGUCTT against 5930422O12Rik”: the z-score is inactive: -0.25. On to GGAGACCUUCCAGAACACATT against Mesdc2, for which the z-score was inactive: 0.846. The value for GGUGUCAUAGACAUGAAAATT against Armc8 was inactive: -0.358; that for “CGCUACGUCCAGUAUCACCTT against 3110005G23Rik” was inactive: 0.233.

Regarding GGUCCAUACAAGUGUUUGATT against Camk2b, the z-score is inactive: -0.885. The result for “GCAAGCCCAUUGAUCAGAGTT against 5930416I19Rik” reads inactive: 0.603; that for “GGGUUUUUUUUUCCUUGAATT against 2410004J23Rik”, inactive: -0.0707; that for “GGUGAAUUUUCAGUUGAUATT against 1200009K13Rik”, inactive: -1.29.

On to GGUGAAGAAAGCACUAGUUTT against Olfr979, for which the z-score was inactive: -0.324. For GCCCAAGACGAAAAGAUACTT against Mrpl9, the z-score is inactive: 1.87. The value for GCGUGGGAGACAAAUGAAATT against Sstr5 was inactive: 2.49. The result for “GCUUUCUACUAAGCCUGCUTT against 9630018L10Rik” reads inactive: -0.361.

Take GGCAAUGUGCCCAAUAUCATT against Rfc2: the z-score was inactive: -2.4. The value for GGAGAAGUUGUUCAGGGAATT against Brms1 was inactive: -0.965.

With “GGUGAGAAGCCUUACCUCUTT against C130032F08Rik”, the z-score was inactive: -1.36. For GGGAGCCAGGAGAAGUUGUTT against Spin, the z-score is inactive: -0.374. The value for GCCUGUUCUAUGUUACUGGTT against Olfr320 was inactive: 0.626; that for GCAUCAAGAGAUCUGAUUATT against Ris2 was inactive: -2.29. The value for CCGGAGCUUUAUUGACACGTT against Rbm19 was inactive: -1.51. The result for GGAUUCUUUCAGGGUCUAATT against Olfr658 reads inactive: -0.74; that for “CCGUUGUUCAUAAUUGUGATT against 2610528K11Rik”, inactive: 0.556. Regarding CCCAGCGCACUUACAUGUCTT against Gpaa1, the z-score is inactive: 0.859. The result for GGCAACUCAUGAACUCUCGTT against BC027057 reads inactive: 0.96; that for GGCACGAGGCAGAAUUUUATT against Kctd3, inactive: 1.94.

For the sequence GGCAUCAAUAGGAAGAUGCTT against Rgs19, the z-score was inactive: 0.116.

GGCUCCAAAGUUUGUGCUGTT against Grin3b: the z-score is inactive: -1.3. The value for GGGAAAAGAUGUUUCUAUCTT against Ifi44 was inactive: -0.106; that for “GCAAUACGAAGGCGAAAGCTT against 1110036O03Rik” was inactive: 0.85.

“GCUAAUCGAAGUUGAAAUUTT against 6330407J23Rik”: the z-score was inactive: 0.467. The value for CCAAAUUGUCUCUUCUAACTT against Dnahc1 was inactive: 1.74; that for GGAUGUUUGCUAGCUUCCCTT against Hba-a1 was inactive: 0.96; that for “GCUGAAUCAUUGAUUUACCTT against 1300007B12Rik” was inactive: 0.237.

Consider GCUCAGCUUAUGACCACGUTT against Mapk3, for which the z-score is inactive: 0.0455. With GGAUAUCAAGGGAUCAGACTT against Chchd4, the z-score is inactive: 1.51.

Take GGGAUAUCUAAUCAAAACCTT against Siat8e: the z-score is inactive: 1.13. As to GGGCCAGAGUCAGAAAAGGTT against Ebp, the z-score was inactive: 0.491. The result for GGCGUGAAGAAUUUGUCAATT against Prc1 reads inactive: 0.225; that for “GGGCAUGGCUGUCUUACUCTT against 1500001H12Rik”, inactive: 0.783; that for GGUGCUGAAGCUACGCUAUTT against Wnt9b, inactive: -0.558. The value for GGCCAUGGAAAAAUCUCAGTT against Dtna was inactive: 0.772; that for GGUAGAAUUCAAUGUAUCATT against Arhgap17 was inactive: -0.118. For the sequence CCUCUUAUUCAGAAUGUCCTT against Bnc2, the z-score is inactive: -0.513.

For “GGUCAGACUUGAUUAUUUGTT against F830104G03Rik”, the z-score is inactive: 1.2. CGAAAAGGUGGACUUUUAGTT against Rnf4: the z-score is inactive: 0.895. The value for GCCAACCUUAGGAGACAUCTT against Zfp40 was inactive: -0.0946. Turning to GGAUAAUUCACAGUUCAAATT against Tlk1, the z-score is inactive: 0.479. The result for “GGGUCUAAGGGUUCCGUUATT against 1300007F04Rik” reads inactive: -0.506. The value for GGAUUUGAGCGAUAUGAGCTT against Tex12 was inactive: -0.669; that for GGUACUCGGAUUUGAUUAATT against Myo6 was inactive: 0.399; that for GGAUGUCCGGAAGAUGUUUTT against Tnrc4 was inactive: -0.279. Regarding GGCUCACAAUAUUGUAUACTT against Ndufa5, the z-score was inactive: -0.425.

With GGGAAUUCUCCUGUUUGCUTT against Plp2, the z-score is inactive: 0.0528. For the sequence CAGCUUCUCAUAAAUCUUCTT against Olfr1385, the z-score was inactive: 0.369. Regarding CCCUAACUUAAUAAAACCUTT against Triobp, the z-score was inactive: -1.02. The result for GGACCUGCUUGAACAUUACTT against Sh2d2a reads inactive: 0.336; that for GGGAGCAUCAAAUUUUGAUTT against BC037674, inactive: 0.715.

With CCUCCACUUCGUGAGCGAATT against AI480653, the z-score is inactive: -0.213.

For the sequence “GGAGCAACCAUCCUUGUAUTT against 9030603L14Rik”, the z-score was inactive: -0.29.

As to GGAGCUUCUUUUUUGUUUATT against Myog, the z-score was inactive: 0.143.

These data come from PubChem BioAssay AID1347423 (Functional Genomics Laboratory (NCATS/FGL), 2020).
